The data set deals with B16BL6 melanoma. The experiment in a line: Established subcutaneous B16BL6 melanoma in water- or ethanol-drinking C57BL6 mice: tumor growth, metastasis, body weight, intake, body fat. The note with it: for food intake: ethanol-consuming mice, treatment period. The protocol: In an effort to approximate the effect of SSRIs on melanomas in clinical situations, administration of the agents began after tumor growth was apparent.
Fourteen to 16 C57BL6 mice per group were inoculated s.c. with 1×10^6 B16BL6 melanoma cells. […] The test agent and saline control were injected daily subcutaneously (s.c.) into the gluteal region opposite from the site of tumor inoculation, approximately two hours before the dark cycle. […] At 21 days the animals were sacrificed.
Female C57/BL6 mice consumed either water or 20% w/v ethanol ad libitum for six weeks prior to inoculation with of melanoma cells. The mice were injected with 1×10^6 tumor cells subcutaneously (s.c.) into the dorsal hip.
Two weeks after inoculation, the animals were divided into four treatment groups: (1) water drinking or (2) ethanol drinking, both groups injected with saline control for seven days; (3) water drinking or (4) ethanol drinking. […] Tumor growth was measured with calipers on days 14, 16, 18, and 20. Mice were killed on day 21 and necropsied.
Perigonadal and carcass fat were determined. Body weight, food consumption, and fluid-consumption were measured continually throughout the experiment.
Perigonadal fat, a measure of body fat content, was removed at necropsy and weighed. Mice were then dehydrated at 60° C. until they reached constant weight. They were then pulverized in a Bel-Art Micro-Mill. The whole carcass was transferred to a soxhlet extractor and the lipid was extracted with chloroform:methanol (2:1) for 24 hours. The extraction cone containing the carcass was removed, air-dried to evaporate the chloroform and methanol, and then weighed. The difference in weight was the weight of carcass lipid. The percentage of carcass lipid was calculated as the weight of lipid/dry carcass weight×100.

One compound from patent publication US6927223B1, “Use of serotonin agents for adjunct therapy in the treatment of cancer” (priority 2000, dated 2005) can be followed below.

Turning to `CNCCC(Oc1ccc(C(F)(F)F)cc1)c1ccccc1` (stereo not shown) [fluoxetine], the food intake result runs as follows: (versus saline-injected controls) “stimulated food intake”; (versus saline-injected controls, listed as Fluoxetine) “significant (p<0.001) increase”. Moreover, the ethanol consumption entry (ethanol-drinking mice, third week of tumor growth, versus saline-injected controls) was “significant (p<0.001) increase”. Moreover, where the note is “water- and ethanol-drinking tumor-bearing mice”, the “body weight gain from week 3 to week 4” value is reported as “did not gain body weight”.
